{"source": "PubChem BioAssay AID504786 (Drosophila RNAi Screening Center, 2011)", "purpose": "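Knock-downs reducing HIF reporter induction by the iron chelator DFO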 (primary screen)", "cells": "Drosophila S2 cells with a stable HIF luciferase reporter", "knock-down reagent": "long dsRNA against Drosophila genes, about 0.2 µg dsRNA per well of a 384-well plate", "timing": "three days of knock-down, then 20 h of DFO before reading", "challenge": "desferrioxamine (DFO) at 100 µM, an iron chelator that mimics hypoxia, for 20 h", "measured": "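Firefly luciferase driven by the mouse ldh-a hypoxia-response element, measured after 20 h of 100 µM DFO; z-scores per plate, higher means more signal lost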", "direction": "z-score: higher = stronger loss of HIF reporter signal", "note": "The deposit covers about 21,000 reagents; below is a random part of those that have a named target and a result. 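Primary screen; positive scores mean lost reporter signal, so the sign may be inverted from the usual convention.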 The numbers tell different reagents against one gene apart."}
{"Gene": "Nmt", "reagent": 1, "z-score, replicate 1": -0.5, "z-score, replicate 2": -0.9}
{"Gene": "CG2608", "reagent": 1, "z-score, replicate 1": 0, "z-score, replicate 2": 0.3}
{"Gene": "Chd3", "reagent": 1, "z-score, replicate 1": -0.2, "z-score, replicate 2": -0.3}
{"Gene": "CG16888", "reagent": 1, "z-score, replicate 1": 0, "z-score, replicate 2": -0.1}
{"Gene": "yem", "reagent": 1, "z-score, replicate 1": -0.5, "z-score, replicate 2": -0.6}
{"Gene": "yem", "reagent": 2, "z-score, replicate 1": -0.7, "z-score, replicate 2": -0.1}
{"Gene": "tun", "reagent": 1, "z-score, replicate 1": 0, "z-score, replicate 2": -0.2}
{"Gene": "tun", "reagent": 2, "z-score, replicate 1": -0.2, "z-score, replicate 2": -0.2}
{"Gene": "Coa7", "reagent": 1, "z-score, replicate 1": 0.9, "z-score, replicate 2": 0.3}
{"Gene": "Lpin", "reagent": 1, "z-score, replicate 1": -0.3, "z-score, replicate 2": -0.4}
{"Gene": "ENGase", "reagent": 1, "z-score, replicate 1": -1.2, "z-score, replicate 2": -0.6}
{"Gene": "ENGase", "reagent": 2, "z-score, replicate 1": -0.4, "z-score, replicate 2": -0.3}
{"Gene": "CG3987", "reagent": 1, "z-score, replicate 1": -0.4, "z-score, replicate 2": -0.2}
{"Gene": "CG9302", "reagent": 1, "z-score, replicate 1": -0.6, "z-score, replicate 2": -0.1}
{"Gene": "CG3650", "reagent": 1, "z-score, replicate 1": -0.3, "z-score, replicate 2": -0.3}
{"Gene": "Pcl", "reagent": 1, "z-score, replicate 1": 1.1, "z-score, replicate 2": 1.5}

Entries listed so far whose target name begins with Y or y (2):
{"Gene": "yem", "reagent": 1, "z-score, replicate 1": -0.5, "z-score, replicate 2": -0.6}
{"Gene": "yem", "reagent": 2, "z-score, replicate 1": -0.7, "z-score, replicate 2": -0.1}
